Measured values reported in patent US20240082356A1, “TREATMENT OF COPD BY STIMULATION OF STEM CELL MOBILIZATION” (Therapeutic Solutions International, Inc., priority 2022, published 2024).
For at least one compound, name, drawing or mass did not settle the structure.

Test system: neutrophil infiltration in COPD like inflammation
Test: Neutrophil infiltration in elastase-induced COPD model
Type: in vivo
Details: female BALB/c mice injected with elastase (5 micrograms per mouse); G-CSF 10 micrograms per mouse every second day for one week and pterostilbene 40 mg/kg intraperitoneally; assessed on days 0, 7 and 14
Procedure: Female BALB/c mice, 10 per group, where injected with elastase (5 micrograms per mouse) to induce COPD like inflammation. Mice were given G-CSF (10 micrograms per mouse) every second day for one week and pterostilbene (40 mg/kg) intraperitoneally. Mice were sacrificed on days 0, 7, and 14 and assessed for neutrophil infiltration.

Question: Which “neutrophil infiltration in COPD Model” value does the source give for `COc1cc(/C=C/c2ccc(O)cc2)cc(OC)c1` [Pterostilbene, pterostilbene] here?
Answer: reduction of neutrophil infiltration
